In article PMC6199744, “Development of Chemical Proteomics for the Folateome and Analysis of the Kinetoplastid Folateome” (ACS Infectious Diseases, 2018):
Further values from the same series stand in other lists.

Tested on: L. major lysate proteins
Test: Multitargeted bead mixture chemoproteomics, single concentration competition, proteome-wide
Assay type: binding
Conditions: for fold change: vehicle control = 1

CCCCCCOc1cccc(Cc2cnc(N)nc2N)c1 [compound 2] was tested, and the fold change (protein LMJF.28.2750 ACTIVATED PROTEIN KINASE C RECEPTOR (LACK)) was 1.09, the fold change (protein LMJF.29.0120 PROTEASOME REGULATORY NON-ATPASE SUBUNIT, PUTATIVE) was 0.96 and the fold change (protein LMJF.29.0760 LIPOPHOSPHOGLYCAN BIOSYNTHETIC PROTEIN, PUTATIVE,HEAT SHOCK PROTEIN 90, PUTATIVE) was 0.85. For the same compound, the fold change (protein LMJF.29.1240 HY[…], UNKNOWN FUNCTION) was 1.25, the fold change (protein LMJF.29.1270 100 kDa heat shock protein (Hsp100)) was 1.02 and the “fold change vs vehicle control” value (protein LMJF.30.0120 […] SYNTHASE) was 1.14. It also gave a fold change (protein LMJF.30.0750 4-METHYL-5(BETA-HYDROXYETHYL)-THIAZOLE MONOPHOSPHATE SYNTHESIS PROTEIN, PUTATIVE) of 0.94, a fold change (protein LMJF.30.1940 SUCCINYL-COA:3-KETOACID-COENZYME A TRANSFERASE- LIKE PROTEIN) of 1.09 and a fold change (protein LMJF.30.2330 HY[…], UNKNOWN FUNCTION) of 1.25. It also gave a fold change (protein LMJF.30.2550 HEAT SHOCK 70-RELATED PROTEIN 1, MIT[…], PUTATIVE) of 1.15, a fold change (protein LMJF.30.3090 HY[…], CONSERVED) of 1.17 and a fold change (protein LMJF.30.3130 VALYL-TRNA SYNTHETASE, PUTATIVE) of 0.96. The fold change (protein LMJF.30.3430 HY[…], CONSERVED) was 1.03, the “fold change vs vehicle control” value (protein LMJF.30.3600 ATP SYNTHASE, EPSILON CHAIN, PUTATIVE) was 1.37 and the fold change (protein LMJF.30.3730 60S ACIDIC RIBOSOMAL PROTEIN P2, PUTATIVE) was 0.98. For the same compound, the fold change (protein LMJF.32.0050 PROTEIN TRANSPORT PROTEIN SEC13, PUTATIVE) was 0.97, the fold change (protein LMJF.32.0750 RNA BINDING PROTEIN, PUTATIVE) was 1.08 and the “fold change vs vehicle control” value (protein LMJF.32.1060 DYNEIN, PUTATIVE) was 1.08. For the same compound, the fold change (protein LMJF.32.2800 HYPOTHETICAL PROTEIN, CONSERVED) was 0.89, the fold change (protein LMJF.32.3270 […] SUBUNIT, PUTATIVE) was 1.09 and the fold change (protein LMJF.32.3310 DIHYDROLIPOAMIDE DEHYDROGENASE, PUTATIVE) was 0.8. The fold change (protein LMJF.32.3640 HY[…], CONSERVED) was 1.11, the fold change (protein LMJF.33.0240 THIOL-DEPENDENT REDUCTASE 1) was 0.97 and the fold change (protein LMJF.33.0830 2,4-DIENOYL-COA REDUCTASE FADH1, PUTATIVE) was 1.08. The fold change (protein LMJF.33.1590 HYPOTHETICAL PROTEIN, CONSERVED) was 1.23, the fold change (protein LMJF.33.1750 MACROPHAGE MIGRATION INHIBITORY FACTOR-LIKE PROTEIN) was 0.97 and the fold change (protein LMJF.33.2060 HYPOTHETICAL PROTEIN, CONSERVED) was 1. It also gave a fold change (protein LMJF.33.2270 HY[…], CONSERVED) of 1.21, a fold change (protein LMJF.33.2340 SUCCINYL-COA:3-KETOACID-COENZYME A TRANSFERASE, MIT[…], PUTATIVE) of 1.13 and a fold change (protein LMJF.33.2540 CARBOXYPEPTIDASE, PUTATIVE,METALLO-PEPTIDASE, CLAN MA(E), FAMILY M32) of 1.08. It also gave a fold change (protein LMJF.34.0140 MALATE DEHYDROGENASE) of 1.1, a fold change (protein LMJF.34.0840 T[…] 1-BETA, PUTATIVE) of 1.15 and a fold change (protein LMJF.34.0930 HYPOTHETICAL PROTEIN, CONSERVED) of 1.1. The fold change (protein LMJF.34.2340 ASPARAGINYL-TRNA SYNTHETASE, PUTATIVE) was 0.92, the “fold change vs vehicle control” value (protein LMJF.34.2580 HYPOTHETICAL PROTEIN, CONSERVED) was 1.3 and the fold change (protein LMJF.34.3250 PUTATIVE PYRUVATE/INDOLE-PYRUVATE CARBOXYLASE, PUTATIVE) was 1.2. It also gave a fold change (protein LMJF.35.0070 PROHIBITIN, PUTATIVE) of 1.05, a fold change (protein LMJF.35.0240 60S RIBOSOMAL PROTEIN L30) of 1.04 and a fold change (protein LMJF.35.0360 ENOYL-COA HYDRATASE/ISOMERASE FAMILY PROTEIN, CONSERVED) of 1.19. It also gave a fold change (protein LMJF.35.0820 ASPARTATE AMINOTRANSFERASE, PUTATIVE) of 1.07, a fold change (protein LMJF.35.1220 SHORT CHAIN DEHYDROGENASE, PUTATIVE) of 1.32 and a fold change (protein LMJF.35.1230 SHORT CHAIN DEHYDROGENASE, PUTATIVE) of 1.19. For the same compound, the fold change (protein LMJF.35.3080 GLYCEROL KINASE, GLYCOSOMAL, PUTATIVE) was 1.09, the fold change (protein LMJF.35.3230 C[…] LYASE, PUTATIVE) was 1.21 and the fold change (protein LMJF.35.4420 MIT[…] TRANSPORTER, PUTATIVE) was 1.17. It also gave a fold change (protein LMJF.36.0070 STRESS-INDUCIBLE PROTEIN STI1 HOMOLOG) of 1.13, a fold change (protein LMJF.36.0210 SET DOMAIN PROTEIN, PUTATIVE) of 0.94 and a fold change (protein LMJF.36.0320 […] 2 SUBUNIT, PUTATIVE) of 1.07. It also gave a fold change (protein LMJF.36.0930 40S RIBOSOMAL PROTEIN S18, PUTATIVE) of 1.27, a fold change (protein LMJF.36.1260 FRUCTOSE-1,6-BI[…]) of 1.2 and a fold change (protein LMJF.36.1430 T[…] 1-BETA, PUTATIVE) of 1.42. For the same compound, the fold change (protein LMJF.36.1600 PROTEASOME ALPHA 1 SUBUNIT, PUTATIVE) was 1, the fold change (protein LMJF.36.1650 […] 5 SUBUNIT, PUTATIVE) was 1.06 and the fold change (protein LMJF.36.2030 CHAPERONIN HSP60, MIT[…]) was 1.18. It also gave a fold change (protein LMJF.36.2160 HYPOTHETICAL PROTEIN, CONSERVED) of 1, a fold change (protein LMJF.36.2660 DIHYDROLIPOAMIDE ACETYLTRANSFERASE PRECURSOR, PUTATIVE) of 0.85 and a fold change (protein LMJF.36.2750 ACETYLTRANSFERASE-LIKE PROTEIN) of 1.08. For the same compound, the fold change (protein LMJF.36.2950 SUCCINYL-COA LIGASE GDP-FORMING] BETA-CHAIN, PUTATIVE) was 1.13, the fold change (protein LMJF.36.3210 14-3-3 PROTEIN-LIKE PROTEIN) was 1.22 and the fold change (protein LMJF.36.3410 SHORT CHAIN DEHYDROGENASE-LIKE PROTEIN) was 1.03. The fold change (protein LMJF.36.3530 POLYUBIQUITIN, PUTATIVE) was 1.27, the fold change (protein LMJF.36.4420 60S RIBOSOMAL PROTEIN L22, PUTATIVE) was 1.15 and the fold change (protein LMJF.36.4460 HY[…], CONSERVED) was 1.13. It also gave a fold change (protein LMJF.36.6540 […] ENDO-1-LIKE PROTEIN) of 1.11.
